# Percent effect of library compounds

Protein sequences, listed by entry. Tags and fused reporters are not part of them.
UniProt P9WNZ1, whole entry: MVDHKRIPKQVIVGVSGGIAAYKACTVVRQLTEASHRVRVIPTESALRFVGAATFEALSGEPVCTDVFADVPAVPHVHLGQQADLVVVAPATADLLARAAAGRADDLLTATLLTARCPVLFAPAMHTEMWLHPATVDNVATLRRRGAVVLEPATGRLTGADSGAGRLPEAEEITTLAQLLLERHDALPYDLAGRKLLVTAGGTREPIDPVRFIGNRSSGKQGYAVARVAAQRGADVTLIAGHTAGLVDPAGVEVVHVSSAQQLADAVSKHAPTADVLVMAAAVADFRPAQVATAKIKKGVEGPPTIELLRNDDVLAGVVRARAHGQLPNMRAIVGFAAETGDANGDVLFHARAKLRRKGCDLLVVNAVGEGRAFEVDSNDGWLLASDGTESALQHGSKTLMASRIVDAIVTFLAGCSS

Source: ChEMBL document CHEMBL3988442, “University of Dundee, Small-Polar-MMV Screening Library” (2021).

Each number is a percent effect as filed.
The controls that fix the scale are not given in the record; negative values are as filed.
The compounds are a random part of those screened.
A dash means the value is not listed here; it may have been measured.

A: 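Assay of Toxoplasma gondii numbers, read through their beta-galactosidase reporter with a colour substrate. Tested at 10 µM. The record gives no direction; the compounds picked for IC50 retests had high values, so higher reads as fewer parasites. Of about 67,000 compounds tested this way, about 260 (0.38%) reached 50% or more in at least one test.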
B: 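Enzyme assay of CoaBC with a phosphate dye (Biomol Green) read at 650 nm. Target: Coenzyme A biosynthesis protein CoaBC, Mycobacterium tuberculosis (UniProt P9WNZ1). Concentration: 30 µM. Direction is inferred from only a few compounds that gave an IC50; most scored high, so higher reads as stronger inhibition. Most strong results did not repeat in a second test. Of about 67,000 compounds tested this way, about 40 (0.06%) reached 50% or more in at least one test.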

compound	A	B
CNc1nccc(-c2cnc3sc(C)c(C)n3c2=O)n1	-17.78%	-2.53%
CC(=O)c1ccc(-n2c(C)cn(CCC(=O)NC(N)=O)c2=O)cc1	-6.633%	1.266%
CN(CCO)Cc1nnc(C2CCN(C(=O)c3ccccn3)CC2)n1C	4.468%	-0.5141%
CCOCCn1c(=O)[nH]c2cc(C(=O)N(C)Cc3cnn(C)c3)ccc21	-0.8979%	10.74%
CN(C)CC(=O)N1CCC2(CC1)CN(Cc1cccnc1)C(=O)CO2	17.99%	-0.4706%
CCn1nnc(NCc2ccc(-c3ccc(Br)cc3)o2)n1	9.596%	-2.581%
CC(C)c1ccc2c(c1)C1(CC(=O)Nc3[nH]ncc31)C(=O)N2C (stereo unspecified)	3.85%	2.785%
CC(C)CNC(=O)c1c(-n2cnnn2)sc2c1CCCC2	-24.58%	1.139%
CN(CCCOc1ccccc1)S(=O)(=O)N1CCOCC1	1.07%	6.129%
CCn1c(C)nnc1SCCNC(=O)c1cnc(C(C)(C)C)nc1O	-2.741%	3.99%
CC(C)c1ncc(Cl)c(C(=O)N2CCN(C3CC3)CC2)n1	-1.844%	0.1267%
CC(c1ccc(F)cc1F)N1CCN(CCN2CCCC2=O)CC1 (stereo unspecified)	6.23%	1.984%
CS(=O)(=O)N1CCN(C(=O)c2cccc(Cl)c2)CC2(CNC(=O)C2)C1 (stereo unspecified)	-3.499%	-0.2037%
COc1ccc2c(c1)C(=O)N(C)C1(CCN(CC=C(C)C)CC1)N2	4.23%	-6.341%
CN(C)C(=O)N1Cc2nnn(C)c2C(COCc2cccnc2)C1 (stereo unspecified)	-	9.234%
Cc1ccc(CN2CCC(CNC(=O)Cn3cncn3)CC2)cc1	-10.51%	0.495%
CN(CCN1CCCCCC1)C(=O)c1cc(CN2CCCC(O)C2)on1 (stereo unspecified)	-0.634%	2.675%
Cc1noc([C@@H]2C[C@H]3OCC[C@H]3N(C(C)C)C2)n1	-	-6.947%
Cc1nc(N2CCOCC2)nc2c1COCC21CCN(CC(C)C)C1 (stereo unspecified)	1.478%	-0.4673%
O=S(=O)(c1ccc2c(c1)OCCO2)N1CCc2ccccc2C1	3.262%	-1.728%
CS(=O)(=O)N1CCO[C@@H]2CN(Cc3ccncc3)C[C@@H]2C1	-	2.326%
CCOCC1CN(Cc2ccc3c(c2)OCO3)Cc2ncn(C)c21 (stereo unspecified)	-3.242%	3.294%
Cc1cccc(-c2noc(CN3CCc4nn(C)c(=O)cc4C3)n2)c1	-3.431%	12.65%
CNS(=O)(=O)c1cccc(C(C)NCc2ccncc2)c1 (stereo unspecified)	5.52%	6.349%
CCN(C(=O)NCc1ccccc1OC(F)F)C(C)c1cccnc1 (stereo unspecified)	-	3.075%
O=C(NCc1nncn1C1CCCCC1)C1CNCCO1 (stereo unspecified)	13.95%	1.794%
COCCn1cc(CC(=O)Nc2nc[nH]n2)c2ccccc21	-17.37%	3.452%
COCC1CN(CC2CC2)Cc2ncn(CC3CC3)c21 (stereo unspecified)	-3.416%	-3.21%
N#Cc1c(N2CCCN(C3CCOCC3)CC2)nc2ccccn12	11.96%	2.564%
CCOCC(=O)Nc1ccc(N2CCSCC2)cc1C	-0.5907%	5.38%
c1cc(C2CCN(Cc3nc(C4CC4)no3)CC2)[nH]n1	16.63%	3.912%
N#Cc1ccc(F)c(CNC(=O)NC(CO)c2ccccc2)c1 (stereo unspecified)	0.918%	7.143%
O=C1[C@@H]2CCN(Cc3ccc(F)cc3)C[C@@H]2OCCN1c1cccnc1	-	-2.5%
CSCCc1c(-c2ccccc2)ncn1CC(C)(C)N1CCCC1	-3.738%	-4.467%
COc1ccc(CN2C[C@@H]3OCC(=O)N(CC(N)=O)[C@@H]3C2)cc1	-	-35.95%
Cc1oc(-c2ccoc2)nc1CN1CCCCC1CCn1cccn1 (stereo unspecified)	-7.461%	-0.6031%
Cc1n[nH]c(C)c1CCc1n[nH]c(=O)n1Cc1cccs1	-5.582%	2.982%
O=C(O)C(F)(F)F.O=C(O)C(F)(F)F.O=C(O)C(F)(F)F.O=C(O)C(F)(F)F.[H][C@@]12CCCO[C@]1([H])[C@H](N(C)Cc1cccnc1)CN2Cc1nccn1C	22.63%	-
[H][C@]12CNC[C@@]1([H])[C@H](C(=O)NCc1ccccn1)COC2	5.963%	-
CCOc1ncnc2c1CCN(C(=O)c1cnccn1)CC2	2.094%	0.3226%
CCOCC1CN(C(=O)c2ccnnc2)Cc2cnn(CC)c21.O=C(O)C(F)(F)F (stereo unspecified)	-0.05882%	-
Cc1nc2c(c(NC3CC3)n1)CCN(C(=O)C1(C#N)CC1)CC2	7.133%	3.202%
[H][C@@]12CS(=O)(=O)C[C@]1([H])N(Cc1cccc(O)c1)CCN2CC1CC1	7.336%	-
CCc1ccc(OCCn2cccn2)cc1	-12.59%	-5.984%
CC(C)[C@]1(O)CN(C(=O)C2(Cn3cccn3)CC2)C[C@H]1C	-10.7%	7.767%
Cc1cc(CC(=O)NCC(O)COc2ccc(F)c(F)c2)no1 (stereo unspecified)	6.6%	0.6098%
Cc1nn(C)c(N2CCOCC2)c1CNCc1ccc(CO)c(F)c1	11.99%	2.089%
C[C@H]1C[C@@H]2CCN(C(=O)c3ccncn3)C[C@H]2O1	-	8.903%
O=C(NCc1c[nH]c(=O)[nH]c1=O)C1CCOc2ccccc2C1 (stereo unspecified)	-20.68%	-1.022%
CN(C(=O)[C@H]1CSCN1C(=O)OC(C)(C)C)C1CC1	-3.32%	-4.738%
CCC[C@@H]1CN(S(=O)(=O)c2ccc(C)c(F)c2)C[C@H]1N(C)C	-4.075%	-8.036%
O=C(c1cnccn1)N1CCCC2(CCN(Cc3cccnc3)C2)C1 (stereo unspecified)	-	-6.318%
O=C(O)C(F)(F)F.c1cncc(N2CCCn3nnc(COCC4CC4)c3C2)c1	-15.87%	-
CCOCc1ccc(NC(=O)C(C)C)cc1	5.798%	6.211%

Once more, the final 5:

compound	A	B
CN(C(=O)[C@H]1CSCN1C(=O)OC(C)(C)C)C1CC1	-3.32%	-4.738%
CCC[C@@H]1CN(S(=O)(=O)c2ccc(C)c(F)c2)C[C@H]1N(C)C	-4.075%	-8.036%
O=C(c1cnccn1)N1CCCC2(CCN(Cc3cccnc3)C2)C1 (stereo unspecified)	-	-6.318%
O=C(O)C(F)(F)F.c1cncc(N2CCCn3nnc(COCC4CC4)c3C2)c1	-15.87%	-
CCOCc1ccc(NC(=O)C(C)C)cc1	5.798%	6.211%